{
  "source": "PubChem BioAssay AID1347423",
  "about": "(Functional Genomics Laboratory (NCATS/FGL), 2020)",
  "note": "Screen size: about 52,000 sequences; about 210 (0.4%) were called active.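 The calls were made as follows: active = gene whose silencing raises cell survival under the drug, median off-target-corrected z-score across its silencing RNAs 2 or more; inactive = the rest.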 This is one part of the list.",
  "data": [
    {"test": "Resistance to Poly (ADP-Ribose) Polymerase inhibitor: Gene Identification via Genome-wide siRNA Screen", "conditions": "mouse BRCA2 R2336H ES cells, olaparib, CellTiter-Glo viability; hits give high values", "outline": "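Genome-wide siRNA screen (3 siRNAs/gene, 20 nM) in mouse ES cells carrying hypomorphic BRCA2 R2336H; olaparib 500 nM added 48 h post-transfection, CellTiter-Glo viability 72 h later. Normalized to plate-median negative control; MAD z-scores, gene median, seed-adjusted.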", "values": [
      {"sequence": "GGACCUCAAAGACAACCGGTT against 2410018C20Rik", "z-score": "inactive: 0.964"},
      {"sequence": "CCUCCUCUCUUACUACGAGTT against Nab2", "z-score": "inactive: 0.194"},
      {"sequence": "GCUAAUUUCUUGAGAAGCGTT against Dek", "z-score": "inactive: 0.0835"},
      {"sequence": "GGAGUGACACUAUUGGGAATT against LOC330776", "z-score": "inactive: -1.47"},
      {"sequence": "GGCAAGACUAUGAAUAUAATT against 1810047C23Rik", "z-score": "inactive: -0.686"},
      {"sequence": "GGGCAUUUGUGAAAGAACUTT against C130032J12Rik", "z-score": "inactive: 0.683"},
      {"sequence": "GGAACACCAUAUGAAGGCGTT against Ube2h", "z-score": "inactive: -0.245"},
      {"sequence": "GCUGCUGAAUUGAAUCAUCTT against Krtap4-7", "z-score": "inactive: 0.554"},
      {"sequence": "GGGUUGUCCUGAACUUUAATT against Npr1", "z-score": "inactive: -0.454"},
      {"sequence": "GCCUAGGGUUUCUGAAAUGTT against Rpe", "z-score": "inactive: 0.601"},
      {"sequence": "GCAAGUGUGGUUAAUCUGCTT against A930021O22", "z-score": "inactive: 1"},
      {"sequence": "GGACACUUUACUUUUGAGATT against 4930404J24Rik", "z-score": "inactive: 0.147"},
      {"sequence": "GGCACAUUCAUAGAACAAGTT against 1700022C21Rik", "z-score": "inactive: 0.191"},
      {"sequence": "GGAGCAAUGUGUUUUCUCUTT against Ppnr", "z-score": "inactive: 0.747"},
      {"sequence": "CCUCGUCUUAUUGAGGCUCTT against Dhrs1", "z-score": "inactive: 0.15"},
      {"sequence": "GCCAAUUAGCAUAUUUCAUTT against Slc16a4", "z-score": "inactive: 0.0709"},
      {"sequence": "GGAGCCUAUACUGAUUUAUTT against Tomm7", "z-score": "inactive: 0.467"},
      {"sequence": "GGUAUGAUCAAUGACUUACTT against Serpine1", "z-score": "inactive: -0.786"},
      {"sequence": "GGUUUGCUUUUCGUAUCUATT against Ppp3r1", "z-score": "inactive: -0.147"},
      {"sequence": "GGAUGAAGGCUUCUCUGCUTT against 1700023M09Rik", "z-score": "inactive: -1.93"},
      {"sequence": "GCCCUCAUCAAUUCAACCCTT against F730023N20", "z-score": "inactive: 1.23"},
      {"sequence": "GCAAAUCAGUCUAUCGCUGTT against Mcpt8", "z-score": "inactive: -0.725"},
      {"sequence": "GCAUUUGAAAUAUUCGCUATT against 4933439A12Rik", "z-score": "inactive: 1.2"},
      {"sequence": "GGUACACACGGACAAACGCTT against D9Ertd280e", "z-score": "inactive: -0.485"},
      {"sequence": "GCUAGAACAGAAAAGAACCTT against Kcnb1", "z-score": "inactive: -0.0625"},
      {"sequence": "GGAGCGAUCUGAAAAUUUGTT against Rasip1", "z-score": "inactive: 1.29"},
      {"sequence": "CCGACUAAGAAUCAGAGAATT against 2700091N06Rik", "z-score": "inactive: 0.591"},
      {"sequence": "GGGUGACAUGGUGACCAUCTT against Matk", "z-score": "inactive: 0.0832"},
      {"sequence": "GGAACUAGAGCUGAUAAUATT against Smurf1", "z-score": "inactive: -0.727"},
      {"sequence": "GCAACUAUAGUGCUCUCACTT against Ggtl3", "z-score": "inactive: -0.414"},
      {"sequence": "GGGUCAGACAGGUAUUAUATT against Cocoacrisp", "z-score": "inactive: 1.43"},
      {"sequence": "GGAGCUGCUCCCUCUAAUATT against Cbr1", "z-score": "inactive: 2.41"},
      {"sequence": "GGAGGUGGAACUGCUGUAUTT against BC064033", "z-score": "inactive: 0.49"},
      {"sequence": "CCCAGACAUAUUUUACUCGTT against C230043N17Rik", "z-score": "inactive: -0.763"},
      {"sequence": "CCAGGUGACACCCAUCAUUTT against 0710001P18Rik", "z-score": "inactive: -0.673"},
      {"sequence": "CCCACUCCAAACAUCUAAATT against Gadd45b", "z-score": "inactive: 0.111"},
      {"sequence": "GGCUUUAUCCUGUCUGUGGTT against Slc10a2", "z-score": "inactive: -1.53"},
      {"sequence": "GGAAGUUGAUGAAUUCUUATT against Raet1a", "z-score": "inactive: -0.207"},
      {"sequence": "GGUUUUCUGGAAGUACUUGTT against 4931427F14Rik", "z-score": "inactive: 1.72"},
      {"sequence": "GGUUGGUGCUGGCUAACAUTT against Gabra2", "z-score": "inactive: 1.55"},
      {"sequence": "GGAUAACACCGCCAUUCCATT against Csnk", "z-score": "inactive: -1.31"},
      {"sequence": "GGAGUUCAACUAGAUGUGGTT against Bcl2l13", "z-score": "inactive: 1.55"},
      {"sequence": "GGUAUUUCACUGGAAGACUTT against Dnmt2", "z-score": "inactive: 1.5"},
      {"sequence": "GGCACUCAGUAACUGCAUGTT against Gababrbp", "z-score": "inactive: -0.611"},
      {"sequence": "GGCUGUUACAAGAACGUAGTT against 5031434C07Rik", "z-score": "inactive: 0.0532"},
      {"sequence": "GGAAUAAAUGUCGUCCCUUTT against Mlp", "z-score": "inactive: -1.33"},
      {"sequence": "CCAGUAGCAGAUCAACUCATT against Mad", "z-score": "inactive: -1.37"},
      {"sequence": "CCCUGCAUUGCCUUAUAUCTT against 2610318G18Rik", "z-score": "inactive: 0.555"},
      {"sequence": "GGAUUAUGGACCUCUUGGUTT against 4930595M18Rik", "z-score": "inactive: -0.329"},
      {"sequence": "GCUGUAAAGUAAGUGUAGUTT against BC016198", "z-score": "inactive: 0.307"},
      {"sequence": "CCCGAUGAGAGACAUUUUATT against Rrm2", "z-score": "inactive: -3.16"},
      {"sequence": "GCGAAAGAUAUUGUGGAAGTT against Dixdc1", "z-score": "inactive: -0.7"},
      {"sequence": "GAGUAGGAAUUAGAAUGAUTT against Tm4sf10", "z-score": "inactive: 0.000742"},
      {"sequence": "GGGCCAACCAACGAAAUGUTT against Ube1y1", "z-score": "inactive: -2.32"},
      {"sequence": "GCUCUAUUCUCCAACUCUGTT against Pof1b", "z-score": "inactive: -0.364"},
      {"sequence": "GGGUGCUUAAUAAACAUAATT against Slc22a8", "z-score": "inactive: 1.12"},
      {"sequence": "GGUACUCAAGGUAGGCUGCTT against Oasl1", "z-score": "inactive: -0.501"},
      {"sequence": "GCAUGCCUAAAUUUGGGACTT against Fyb", "z-score": "inactive: -0.685"},
      {"sequence": "GGCAAAGCUGUCUUAGAGGTT against 1110005A03Rik", "z-score": "inactive: 0.34"},
      {"sequence": "GGAUAAUGUGGAUAGAACUTT against Slco1a5", "z-score": "inactive: 0.845"},
      {"sequence": "CGGCUACAACACAUACGCCTT against Fgf22", "z-score": "inactive: -0.355"},
      {"sequence": "GGCUUUUGGAGAAAAAGGATT against D10Ertd438e", "z-score": "inactive: 1.18"},
      {"sequence": "GGGCAAAAUAUGAAAUACATT against D730048I06Rik", "z-score": "inactive: -0.664"},
      {"sequence": "CCCUGUAAAGAUCGAGAAGTT against Zfp296", "z-score": "inactive: 1.01"},
      {"sequence": "GGUCAAGACAAUCUGAUCATT against Siat6", "z-score": "inactive: 1.65"},
      {"sequence": "GGAAACACCUAUCUUCUGGTT against Npdc1", "z-score": "inactive: 0.591"}
    ]}
  ]
}
